Measurements: publication PMC12670160, “A drug-repurposing screen of FDA- and EMA-approved drugs identifies two NF-κB inhibitors active against eumycetoma” (Journal of Antimicrobial Chemotherapy, 2025)
Where a name gives a salt, the structure may show the parent alone. Out of some 5,300 compounds screened, about 130 (2.5%) showed an effect of 50% or more. Some of the results follow.

tested on: M. mycetomatis strain mm55; conditions: primary screen, metabolic activity vs growth control; 96 h, 2 µM; inhibitor

| Compound | % viability [%] |
| --- | --- |
| CCNC(=O)[C@@H]1CCCN1C(=O)[C@H](CCCNC(=N)N)NC(=O)[C@H](CC(C)C)NC(=O)[C@@H](CC(C)C)NC(=O)[C@H](Cc1ccc(O)cc1)NC(=O)[C@H](CO)NC(=O)[C@H](Cc1c[nH]c2ccccc12)NC(=O)[C@H](Cc1c[nH]cn1)NC(=O)[C@@H]1CCC(=O)N1 [ONC0002145, leuprolide acetate] | 78.55 |
| CCCCN1CCC(CNC(=O)c2c3n(c4ccccc24)CCCO3)CC1 [ONC0001237, piboserod] | 100.5 |
| CC1(S(=O)(=O)O)CC(=O)c2ccccc2C1=O (stereo not drawn) [ONC0005528, menadionebisulfite] | 107.2 |
| C[C@H]1CC2C([C@@H](O)C[C@@]3(C)C2CC[C@]3(O)C(=O)COC(=O)CCC(=O)O)[C@@]2(C)C=CC(=O)C=C12 (stereo partly drawn) [ONC0003156, methylprednisolone sodium succinate] | 82.41 |
| CC1(C)O[C@@H]2[C@@H](CO[C@@]3(COS(N)(=O)=O)OC(C)(C)O[C@@H]23)O1 [ONC0003896, topiramate] | 80.41 |
| COc1cc(NS(=O)(=O)c2ccc(N)cc2)nc(OC)n1 [ONC0000634, sulfadimethoxine] | 96.85 |
| CC[N+](CC)(CC(=O)Nc1c(C)cccc1C)Cc1ccccc1 [ONC0003966, denatonium benzoate] | 84.43 |
| O=C1N=C2SCCN2C(=O)C1Cc1ccc(Cl)cc1 (stereo not drawn) [ONC0002976, nuclomedone] | 78.17 |
| CNC(=O)c1cccc2cc(Oc3ccnc4cc(OCC5(N)CC5)c(OC)cc34)ccc12 [ONC0002191, lucitanib] | 93.84 |
| CCOC(=O)[C@@H](N)Cc1ccc(O)c(O)c1 [ONC0003209, etilevodopa] | 91.62 |
| O=C1Nc2ccc(I)cc2/C1=C/c1cc(Br)c(O)c(Br)c1 [ONC0001580, gw5074] | 85.3 |
| NC(=O)c1ccc[n+]([C@@H]2O[C@H](COP(=O)(O)OP(=O)(O)OC[C@H]3O[C@@H](n4cnc5c(N)ncnc54)[C@H](O)[C@@H]3O)[C@@H](O)[C@H]2O)c1 [ONC0000400, nadide] | 73.87 |
| COc1c(Nc2ccc(S(C)(=O)=O)nc2C)ncnc1OC1CCN(C(=O)OC(C)C)CC1 [ONC0001156, apd597] | 102.1 |
| Cc1ccc(-c2ccc(C)cn2)nc1 [ONC0002143, abametapir] | 65.91 |
| Clc1cccc(Nc2nnc(-c3ccccc3)c3ccccc23)c1 [ONC0000204, my5445] | 64.62 |
| NC/C(=C/F)CCc1ccc(F)cc1 [ONC0001167, mofegiline hydrochloride] | 95.04 |
| CC(C)Cn1cnc2c(N)nc3ccccc3c21 [ONC0004169, imiquimod hydrochloride] | 125.1 |
| Oc1nc(-c2ccc(C(F)(F)F)cc2)nc2c1CSCC2 [ONC0001471, xav939] | 63.65 |
| OCc1cncc(F)c1 [ONC0002627, 5fluoro3pyridylmethanol] | 74.24 |
| CSCCC(N)C(=O)O (stereo not drawn) [ONC0005439, methionine] | 151 |

Quoted from the listing.
% viability [%], CCCCN1CCC(CNC(=O)c2c3n(c4ccccc24)CCCO3)CC1 [ONC0001237, piboserod] reads 100.5
% viability [%], Cc1ccc(-c2ccc(C)cn2)nc1 [ONC0002143, abametapir] reads 65.91
% viability [%], C[C@H]1CC2C([C@@H](O)C[C@@]3(C)C2CC[C@]3(O)C(=O)COC(=O)CCC(=O)O)[C@@]2(C)C=CC(=O)C=C12 (stereo partly drawn) [ONC0003156, methylprednisolone sodium succinate] reads 82.41

(listing goes on)

| Compound | % viability [%] |
| --- | --- |
| Cc1nc2ccc(NC(=O)Nc3ccnc4cccnc34)cc2o1 [ONC0001721, sb334867] | 85.15 |
| CON(C)C(=O)N1N=C(c2cc(F)ccc2F)S[C@@]1(CCCN)c1ccccc1 [ONC0000968, filanesib] | 67.32 |
| NC(=O)N1c2ccccc2CC(=O)c2ccccc21 [ONC0003954, oxcarbazepine] | 77.43 |
| Oc1ccc(C2(c3ccccc3F)CCC(F)(F)CC2)cc1 [ONC0000174, ac186] | 93.25 |
| NC1=NCC2c3ccccc3Cc3ccccc3N12 (stereo not drawn) [ONC0004471, epinastine hcl] | 120.4 |
| O=C(O)CCC(=O)O [ONC0003714, succinic acid] | 98.68 |
| CN[C@H](CNC(=O)N1CCC[C@@H]([C@@H](OCCNC(=O)OC)c2cccc(Cl)c2)C1)C[C@H]1CCCOC1 [ONC0002041, vtp27999 hydrochloride] | 62.33 |
| Cc1ccc(C23CNCC2C3)cc1 (stereo not drawn) [ONC0001899, bicifadine] | 84.51 |
| O=c1[nH]c(=O)n([C@H]2C[C@H](O)[C@@H](CO)O2)cc1C(F)(F)F [ONC0003908, trifluridine] | 61.31 |
| Cc1cc(C#N)cc(C)c1Oc1nc(Nc2ccc(C#N)cc2)nc(N)c1Br [ONC0005114, etravirine tmc125] | 112.9 |
| Cn1cncc1[C@@](N)(c1ccc(Cl)cc1)c1ccc2c(c1)c(-c1cccc(Cl)c1)cc(=O)n2C [ONC0004838, tipifarnib zarnestra] | 92.61 |
| CC(C)[C@@H](N)C(=O)O [ONC0001949, dvaline] | 68.66 |
| CCCC(=O)O[C@]1(C(=O)CO)CC[C@H]2[C@@H]3CCC4=CC(=O)CC[C@]4(C)[C@H]3[C@@H](O)C[C@@]21C [ONC0002884, hydrocortisone butyrate] | 87.92 |
| CC1(C)S[C@@H]2[C@H](NC(=O)COc3ccccc3)C(=O)N2[C@H]1C(=O)O [ONC0000449, penicillin v potassium] | 88.8 |
| O=C(CN1C(=O)C2(CCCC2)NC[C@H]1c1cc(F)cc(F)c1)Nc1ccc2c(c1)C[C@@]1(C2)C(=O)Nc2ncccc21 [ONC0000767, mk3207 hydrochloride] | 76.45 |
| Cc1cc(F)c(Nc2ncnc3cc(OCc4ccccc4)ccc23)cc1O [ONC0001361, zm323881] | 106.8 |
| COc1ccc2c3c1O[C@H]1C[C@@H](O)C=C[C@@]31CCN(C)C2 [ONC0000593, galantamine] | 145.4 |
| COc1cc(C(=O)NC2CCN(C)CC2)c(F)cc1Nc1ncc2c(n1)N(C1CCCC1)CC(F)(F)C(=O)N2C [ONC0000216, tak960] | 78.5 |
| O=C(NNc1ccccc1)c1ccncc1 [ONC0004620, plurisin 1 nsc 14613] | 71.9 |
| CCCCC/C=C\C=C/CCCCCCCCC(=O)O [ONC0003827, trans10cis12conjugatedlinoleicacid] | 57.74 |

| Compound | % viability [%] |
| --- | --- |
| Cc1nc2c(O)cccc2c(=O)[nH]1 [ONC0001423, nu1025] | 87.37 |
| CC(C)n1cnc2c(NCCc3ccc(O)cc3)nc(-c3csc4ccccc34)nc21 [ONC0005278, stemregenin 1] | 128.8 |
| CN[C@H](CC(C)C)C(=O)N[C@H]1C(=O)N[C@@H](CC(N)=O)C(=O)N[C@H]2C(=O)N[C@H]3C(=O)N[C@H](C(=O)N[C@H](C(=O)O)c4cc(O)cc(O)c4-c4cc3ccc4O)[C@H](O[C@H]3C[C@](C)(N)[C@@H](O)[C@H](C)O3)c3ccc(c(Cl)c3)Oc3cc2cc(c3O[C@@H]2O[C@H](CO)[C@@H](O)[C@H](O)[C@H]2O[C@H]2C[C@](C)(NCc3ccc(-c4ccc(Cl)cc4)cc3)[C@@H](O)[C@H](C)O2)Oc2ccc(cc2Cl)[C@H]1O [ONC0002279, oritavancin diphosphate] | 112.8 |
| c1cc(CN2CCCNCCNCCCNCC2)ccc1CN1CCCNCCNCCCNCC1 [ONC0001133, plerixafor] | 52.62 |
| CN1CC[C@@H](c2c(O)cc(O)c3c(=O)cc(-c4ccccc4Cl)oc23)[C@@H]1CO [ONC0004480, p27600] | 140.9 |
| O=C(NCCCNc1nc(Nc2cccc(NC(=O)N3CCCC3)c2)ncc1I)c1cccs1 [ONC0004591, bx795] | 61.99 |
| CC1(C)Oc2ccc(C#N)cc2[C@@H](OC2=CC(=O)CC2)[C@@H]1O [ONC0003452, pco 400] | 40.31 |
| NCCCCN [ONC0002141, putrescine] | 100.9 |
| CN(Cc1ccc(C(C)(C)C)cc1)Cc1cccc2ccccc12 [ONC0004830, butenafine hcl] | 82.04 |
| CN(C)CCOc1cc(-c2cn[nH]c2)ccc1NC(=O)C1COc2ccccc2O1 (stereo not drawn) [ONC0001682, sr3677] | 115.7 |
| Cc1ncccc1OC[C@@H]1CCCN1 [ONC0005536, pozanicline] | 58.93 |
| C=C[C@@](C)(/C=C/c1ccc(O)cc1)CCC=C(C)C [ONC0002205, bakuchiol] | 54.36 |
| CCCOc1ccc(Br)cc1-c1cc(-c2ccc(Cl)cc2)[nH]c1-c1ccncc1 [ONC0002613, l168049] | 85.53 |
| Cc1ccccc1C(=O)Nc1ccc(C(=O)N2CCCC(N(C)C)c3ccccc32)cc1 (stereo not drawn) [ONC0004579, mozavaptan] | 82.99 |
| CCC(=O)c1ccc(OCC(O)CN2CCN(c3ccccc3)CC2)cc1 (stereo not drawn) [ONC0003757, centpropazine] | 103 |
| NS(=O)(=O)c1ccc(NC(=O)Nc2ccc(F)cc2)cc1 [ONC0000948, u104] | 88.68 |
| CNC(=S)C1(c2ccccn2)CCCS1 (stereo not drawn) [ONC0003719, picartamide] | 105 |
| CC(=O)CC(c1ccc([N+](=O)[O-])cc1)c1c(O)c2ccccc2oc1=O (stereo not drawn) [ONC0005289, acenocoumarin] | 97.28 |
| CCCCCCCCNC(C)C(O)c1ccc(SC(C)C)cc1 (stereo not drawn) [ONC0000631, suloctidil] | 126.6 |
| C=C1C(=O)O[C@@H]2[C@H]3O[C@]3(C)CC/C=C(\C)CC[C@@H]12 [ONC0002950, parthenolidealternatestereo] | 150.2 |
